Measurements from PMC10323252.

Tests used:
Assay in all cases: proximity labelling; BioID: A2780 cells stably expressing mycBirA*-Rab baits (mycBirA* alone as control), 1 uM biotin for 16 h; lysis in 0.4% SDS, 500 mM NaCl buffer; streptavidin microspheres; LC-MS/MS with label-free quantification, four replicates; high-confidence list by SAINTexpress (BFDR<=0.05), longlist by >2-fold enrichment; biotin-modified peptides also scored
Details in all cases: remark: other sources report otherwise
mycBirA*–Rab25, P57735 = molecular target: T1, mycBirA*–Rab25, P57735
T1 chain: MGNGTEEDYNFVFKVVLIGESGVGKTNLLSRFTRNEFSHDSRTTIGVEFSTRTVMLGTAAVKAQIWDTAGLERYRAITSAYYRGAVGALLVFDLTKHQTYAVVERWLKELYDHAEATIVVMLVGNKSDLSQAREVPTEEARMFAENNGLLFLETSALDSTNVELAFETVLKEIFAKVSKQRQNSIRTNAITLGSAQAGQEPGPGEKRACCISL

mycBirA*–Rab11a, P62491 = molecular target: T2, mycBirA*–Rab11a, P62491
T2 chain: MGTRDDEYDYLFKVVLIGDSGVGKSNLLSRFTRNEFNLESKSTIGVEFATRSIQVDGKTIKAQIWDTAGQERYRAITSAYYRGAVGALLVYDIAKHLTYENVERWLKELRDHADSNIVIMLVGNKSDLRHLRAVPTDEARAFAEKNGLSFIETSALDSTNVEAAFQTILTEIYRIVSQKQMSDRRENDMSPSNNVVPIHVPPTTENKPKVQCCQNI

mycBirA*–Rab4a, P20338 = molecular target: T3, mycBirA*–Rab4a, P20338
T3 chain: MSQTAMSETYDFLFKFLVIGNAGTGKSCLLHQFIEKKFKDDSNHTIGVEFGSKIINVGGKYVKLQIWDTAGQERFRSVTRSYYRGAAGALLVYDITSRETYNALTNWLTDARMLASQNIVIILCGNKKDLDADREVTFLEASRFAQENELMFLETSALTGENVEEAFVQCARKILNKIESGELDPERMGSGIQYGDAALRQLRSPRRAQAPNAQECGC

- binding (mycBirA*–Rab25, P57735): no binding
B1: Rab11a (endogenous), P62491 1-216 (protein)
chain: T2 chain

- binding (mycBirA*–Rab11a, P62491): binds
- binding (mycBirA*–Rab4a, P20338): binds
B2: SNX6, Q9UNH7 1-406 (protein)
chain: MMEGLDDGPDFLSEEDRGLKAINVDLQSDAALQVDISDALSERDKVKFTVHTKSSLPNFKQNEFSVVRQHEEFIWLHDSFVENEDYAGYIIPPAPPRPDFDASREKLQKLGEGEGSMTKEEFTKMKQELEAEYLAIFKKTVAMHEVFLCRVAAHPILRRDLNFHVFLEYNQDLSVRGKNKKEKLEDFFKNMVKSADGVIVSGVKDVDDFFEHERTFLLEYHNRVKDASAKSDRMTRSHKSAADDYNRIGSSLYALGTQDSTDICKFFLKVSELFDKTRKIEARVSADEDLKLSDLLKYYLRESQAAKDLLYRRSRSLVDYENANKALDKARAKNKDVLQAETSQQLCCQKFEKISESAKQELIDFKTRRVAAFRKNLVELAELELKHAKGNLQLLQNCLAVLNGDT

Results are given in words; binding and its absence hold for the method and conditions named. In cells and extracts the contact can be indirect. A yes stands for co-enrichment or nearness to the bait. Other partners may have been found. For part of these data: A no says only that the protein was not detected with the bait. Sequences can lack the tags named with a protein. One block for each binder: values may come before it.
